In assay [1] the target is T1, S. aureus Iron regulated surface determinant H (IsdH) (Staphylococcus aureus) (UniProt Q2FXJ2).
T1 sequence (looked up): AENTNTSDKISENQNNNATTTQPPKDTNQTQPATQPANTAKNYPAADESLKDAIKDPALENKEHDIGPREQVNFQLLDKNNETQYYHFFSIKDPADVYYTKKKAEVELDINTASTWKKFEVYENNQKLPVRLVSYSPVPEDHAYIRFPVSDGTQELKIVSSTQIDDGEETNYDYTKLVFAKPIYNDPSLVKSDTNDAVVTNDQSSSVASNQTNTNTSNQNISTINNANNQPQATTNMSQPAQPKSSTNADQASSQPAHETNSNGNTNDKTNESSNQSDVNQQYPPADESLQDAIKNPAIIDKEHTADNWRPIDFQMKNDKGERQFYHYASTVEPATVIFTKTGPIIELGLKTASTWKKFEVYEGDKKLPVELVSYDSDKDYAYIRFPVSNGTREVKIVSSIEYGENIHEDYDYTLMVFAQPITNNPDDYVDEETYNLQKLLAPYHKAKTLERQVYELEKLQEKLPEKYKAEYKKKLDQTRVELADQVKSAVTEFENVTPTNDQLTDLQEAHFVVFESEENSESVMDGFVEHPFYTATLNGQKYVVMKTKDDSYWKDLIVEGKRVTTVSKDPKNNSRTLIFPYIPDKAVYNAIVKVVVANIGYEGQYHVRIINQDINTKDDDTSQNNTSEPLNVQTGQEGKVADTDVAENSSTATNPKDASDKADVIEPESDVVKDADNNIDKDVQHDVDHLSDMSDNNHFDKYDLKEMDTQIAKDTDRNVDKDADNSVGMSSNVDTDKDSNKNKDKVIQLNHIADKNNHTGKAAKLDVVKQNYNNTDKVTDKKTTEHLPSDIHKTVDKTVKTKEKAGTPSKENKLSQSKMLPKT
Put plainly: competition with haptoglobin for IsdH (subunit Neat-1).

The target in assay [2] is T2, IsdH on S. aureus cells (Staphylococcus aureus) (UniProt Q2FXJ2).
T2 sequence: T1 sequence (looked up)
Put plainly: staining and FACS of S. aureus after in vivo passage in mouse.

No constants are given. Whether binding was seen depends on the method and setting. Some results given as binding are weak or reduced against the parent protein; the word gives no strength.

1 molecule from US20150291685A1 can be followed below.

B1: mAb 1C1 (antibody, V domains shown)
VH: EVQLLESGGGLVQPGGSLRLSCAASGFTFSRYFMGWVRQAPGKGLEWVSSIYSSGGYTSYADSVKGRFTISRDNSKNTLYLQMNSLRAEDTAVYYCARRWRDGTFDYWGQGTLVTVSS
VL: DIQMTQSPSSLSASIGDRVTISCRASQSVREYLNWYQQKPGKAPKLLIFAASSLQSGVPSRFSGSGSGTDFTLTISSLQPEDFATYYCQQSYSTRFTFGPGTKVDIK
In the case of B1, the binding entry in assay [1] and in assay [2] was “binds” throughout.
